Binding data for four molecules are collected here from article PMC8213154, “Replacement of Arg in the conserved N-terminal RLFDQxFG motif affects physico-chemical properties and chaperone-like activity of human small heat shock protein HspB8 (Hsp22)” (PLoS ONE, 2021).

Where a chain is given by its changes, count along the chain named. In names and notes the source's numbering stands. These are yes or no findings as the source states them, for the method shown. Some entries that bind do so weakly or less than the wild type.

In test [1] the target is T1, yeast alcohol dehydrogenase (yeast) (UniProt P00330).
T1 sequence: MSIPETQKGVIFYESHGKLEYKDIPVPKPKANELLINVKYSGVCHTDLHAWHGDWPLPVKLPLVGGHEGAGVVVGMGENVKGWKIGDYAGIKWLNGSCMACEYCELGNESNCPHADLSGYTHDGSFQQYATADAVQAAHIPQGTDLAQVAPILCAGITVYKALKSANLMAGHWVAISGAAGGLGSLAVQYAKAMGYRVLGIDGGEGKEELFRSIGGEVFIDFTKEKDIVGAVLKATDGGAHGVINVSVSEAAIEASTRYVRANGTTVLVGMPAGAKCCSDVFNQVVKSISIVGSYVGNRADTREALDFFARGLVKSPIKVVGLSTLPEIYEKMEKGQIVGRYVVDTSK
Kind of test: co-sedimentation; yADH 0.16 mg/ml with HspB8 species 0.32 mg/ml in phosphate-buffered saline, 42°C, aggregation induced by DTT; samples centrifuged after incubation and the pellet analysed; both purified.

The target of test [2] is HspB8 Δ28–32 mutant (human) (UniProt Q9UJY1). Kind of test: SEC; size-exclusion chromatography in the presence of 6 M guanidinium chloride; apparent Mw from column calibration; both purified. (SEC sorts molecules by how far they enter the pores of the column.)
In test [3] the target is T2, human small heat shock protein HspB8 (Hsp22), wild type (human), Q9UJY1.
T2 chain: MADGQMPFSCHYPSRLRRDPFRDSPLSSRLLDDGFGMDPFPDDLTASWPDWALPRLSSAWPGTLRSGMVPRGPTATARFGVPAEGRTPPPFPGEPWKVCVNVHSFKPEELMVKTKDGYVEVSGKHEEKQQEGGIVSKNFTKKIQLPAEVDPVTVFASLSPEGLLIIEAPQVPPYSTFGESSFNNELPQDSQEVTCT
Kind of test: SEC-MALS; Superdex 200 Increase 10/30; 20 mM Tris/acetate pH 7.6, 150 mM NaCl, 0.1 mM EDTA, 0.1 mM PMSF, 2 mM DTT; 200–250 μg of HspB8 WT or R29A, or 400 μg of Δ28–32 loaded; both purified. Conditions: remark: other sources report otherwise.

Test [4] concerns the target human small heat shock protein HspB8 (Hsp22), wild type (human) (UniProt Q9UJY1). Kind of test: SEC; size-exclusion chromatography in the presence of 6 M guanidinium chloride; apparent Mw from column calibration; both purified.
The target of test [5] is HspB8 R29A mutant (human) (UniProt Q9UJY1). Described as above.

B1: HspB8 Δ28–32 mutant (natural protein, human, UniProt Q9UJY1 1-196, looked up)
chain: MADGQMPFSCHYPSRLRRDPFRDSPLSDGFGMDPFPDDLTASWPDWALPRLSSAWPGTLRSGMVPRGPTATARFGVPAEGRTPPPFPGEPWKVCVNVHSFKPEELMVKTKDGYVEVSGKHEEKQQEGGIVSKNFTKKIQLPAEVDPVTVFASLSPEGLLIIEAPQVPPYSTFGESSFNNELPQDSQEVTCT
notes: human HspB8 (Hsp22), Uniprot Q9UJY1, with the pentapeptide 28SRLLD32 deleted; calculated Mw of monomer 21.0 kDa; Made by PCR from the HspB8 WT cDNA and ligated into pET23 via NdeI and XhoI; No tag is named; also called Δ mutant; deletion mutant of HspB8
Regarding B1, the binding entry is reported as “binds” in test [1] and “no binding (condition: in 6 M guanidinium chloride)” in test [2].

B2: human small heat shock protein HspB8 (Hsp22), wild type, Q9UJY1 1-196 (protein)
chain: T2 chain
Turning to B2, the binding result in test [3] is given as “binds”.

B3: human small heat shock protein HspB8 (Hsp22), wild type (protein, UniProt Q9UJY1 1-196)
chain: T2 chain
As for B3, the binding entry in test [1] is recorded as “binds”; in test [4] it was “no binding (condition: in 6 M guanidinium chloride)”.

B4: HspB8 R29A mutant (natural protein, human, UniProt Q9UJY1 1-196, looked up)
chain: T2 chain with R29A
notes: human HspB8 (Hsp22), Uniprot Q9UJY1, carrying the R29A mutation; calculated Mw of monomer 21.5 kDa; No tag is named
As for B4, the binding result is “no binding” in test [1] and “no binding (condition: in 6 M guanidinium chloride)” in test [5].
